Source: PubChem BioAssay AID1259298 (Sanger Institute, 2017)

- Screen: 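Kinases whose loss strengthens killing by BYL719, cetuximab or trametinib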 (primary screen)
- Cell system: HT55 human colorectal cancer cell line
- Reagents: siRNA pool against human genes
- Conditions: anchor drug BYL719 1 µM, cetuximab 5 µg/ml or trametinib 10 nM, or DMSO vehicle alone
- Measurement: 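Mean viability over replicates versus non-targeting pool, a robust z-score without drug, and per-drug synergy scores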
- Direction: robust z-score, knock-down alone: higher = more cells remaining; low means essential gene; viability vs control pool, no drug: higher = more viable cells; synergy score with BYL719 and synergy score with cetuximab and synergy score with trametinib: higher = stronger synthetic lethality with the drug
- Hit rule: 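a gene counts as essential if its knock-down-alone robust z-score falls under -3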
- Calls: active = essential (knock-down alone); inactive = no change alone
Shown is one part, drawn at random, of 794 reagents tested. In the full data, 20 (2.5%) got an active call. 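Calls rest only on the knock-down-alone score; drug synergy scores played no part in them.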 Entries without a mark were called inactive. Viability is capped at 1. Not stated in the record: the amount of reagent, the time to read-out.

gene symbol | robust z-score, knock-down alone | viability vs control pool, no drug (fraction) | synergy score with BYL719 | synergy score with cetuximab | synergy score with trametinib
FCSK (GeneID 197258) | -0.245 | 0.936 | -0.0663 | -0.166 | 0.0447
GCK (GeneID 2645) | 0.452 | 0.99 | -0.0824 | 0.0254 | -0.0482
PRKG2 (GeneID 5593) | 0.58 | 1 | -0.272 | -0.211 | -0.0454
TYK2 (GeneID 7297) | -0.676 | 0.902 | -0.344 | -0.233 | -0.149
CHEK2 (GeneID 11200) | 0.278 | 0.976 | -0.174 | -0.114 | -0.063
CAMK2D (GeneID 817) | 0.58 | 1 | -0.229 | -0.211 | -0.119
CDK2 (GeneID 1017) | 0.58 | 1 | -0.272 | -0.211 | -0.045
MAGI1 (GeneID 9223) | 0.58 | 1 | -0.123 | -0.00141 | 0.0562
STK33 (GeneID 65975) | 0.58 | 1 | -0.0136 | -0.0178 | -0.00921
PIK3C2B (GeneID 5287) | 0.58 | 1 | -0.263 | -0.211 | 0.0377
CAMK2N1 (GeneID 55450) | -4.38 (active) | 0.612 | -0.191 | -0.0121 | -0.0634
MARK2 (GeneID 2011) | 0.561 | 0.999 | -0.198 | -0.213 | -0.112
ACVR1 (GeneID 90) | -2.07 | 0.793 | -0.196 | -0.155 | -0.0641
STK4 (GeneID 6789) | 0.58 | 1 | -0.11 | -0.211 | -0.049
SNRK (GeneID 54861) | 0.58 | 1 | -0.0976 | -0.101 | 0.00702
PINK1 (GeneID 65018) | 0.58 | 1 | -0.04 | 0.0189 | 0.138
PLK2 (GeneID 10769) | 0.58 | 1 | -0.0479 | -0.0263 | -0.0495
MAP4K5 (GeneID 11183) | -1.85 | 0.81 | -0.206 | -0.0977 | -0.0954
ERBB3 (GeneID 2065) | 0.58 | 1 | -0.231 | -0.158 | 0.00532
TSSK1B (GeneID 83942) | 0.575 | 1 | -0.167 | -0.0202 | 0.0578
ERN1 (GeneID 2081) | -1.36 | 0.848 | -0.0347 | 0.00387 | 0.034
IGF2R (GeneID 3482) | 0.58 | 1 | -0.246 | -0.211 | -0.129
ADCK2 (GeneID 90956) | -0.0412 | 0.951 | -0.0642 | -0.221 | 0.105
GK (GeneID 2710) | 0.58 | 1 | -0.208 | -0.211 | -0.021
ADCK5 (GeneID 203054) | 0.0538 | 0.959 | -0.231 | -0.087 | 0.0681
RYK (GeneID 6259) | 0.58 | 1 | -0.272 | -0.211 | -0.0863
AK2 (GeneID 204) | 0.58 | 1 | -0.272 | -0.211 | -0.0646
VRK3 (GeneID 51231) | 0.58 | 1 | -0.272 | -0.165 | -0.142
PCBP1 (GeneID 5093) | -0.128 | 0.945 | -0.143 | -0.187 | 0.104
SRPK2 (GeneID 6733) | 0.58 | 1 | -0.0569 | 0.047 | -0.0697
WEE1 (GeneID 7465) | -2.89 | 0.729 | -0.0994 | 0.0387 | 0.0831
EFNA5 (GeneID 1946) | 0.58 | 1 | -0.177 | -0.211 | -0.0932
MELK (GeneID 9833) | 0.58 | 1 | -0.0642 | -0.126 | -0.0886
MAP3K15 (GeneID 389840) | 0.388 | 0.985 | -0.163 | -0.223 | -0.136
PDK3 (GeneID 5165) | 0.575 | 1 | -0.225 | -0.123 | -0.0344

5 entries from above, ordered by “synergy score with BYL719”, high to low:
gene symbol | robust z-score, knock-down alone | viability vs control pool, no drug (fraction) | synergy score with BYL719 | synergy score with cetuximab | synergy score with trametinib
PINK1 (GeneID 65018) | 0.58 | 1 | -0.04 | 0.0189 | 0.138
PLK2 (GeneID 10769) | 0.58 | 1 | -0.0479 | -0.0263 | -0.0495
SNRK (GeneID 54861) | 0.58 | 1 | -0.0976 | -0.101 | 0.00702
MAP4K5 (GeneID 11183) | -1.85 | 0.81 | -0.206 | -0.0977 | -0.0954
ERBB3 (GeneID 2065) | 0.58 | 1 | -0.231 | -0.158 | 0.00532

Next results:
gene symbol | robust z-score, knock-down alone | viability vs control pool, no drug (fraction) | synergy score with BYL719 | synergy score with cetuximab | synergy score with trametinib
PIM3 (GeneID 415116) | 0.58 | 1 | -0.11 | -0.117 | 0.124
ABL1 (GeneID 25) | 0.58 | 1 | -0.246 | -0.211 | -0.0117
PRKAR2A (GeneID 5576) | 0.58 | 1 | -0.237 | -0.211 | -0.0553
FN3KRP (GeneID 79672) | -0.429 | 0.921 | -0.131 | 0.0444 | 0.0419
DGKI (GeneID 9162) | 0.58 | 1 | -0.24 | -0.143 | 0.0945
NTRK1 (GeneID 4914) | -2.14 | 0.787 | -0.0208 | 0.0437 | 0.0106
CSF1R (GeneID 1436) | 0.58 | 1 | -0.14 | -0.207 | -0.0316
ADGRL2 (GeneID 23266) | -0.596 | 0.908 | -0.155 | -0.00333 | 0.014
RBKS (GeneID 64080) | 0.58 | 1 | -0.258 | -0.184 | -0.15
MYLK2 (GeneID 85366) | -2.12 | 0.789 | -0.136 | 0.0379 | 0.0526
SIK2 (GeneID 23235) | 0.58 | 1 | -0.0872 | -0.155 | -0.0288
PKN3 (GeneID 29941) | 0.485 | 0.993 | -0.163 | -0.217 | 0.0678
CDKN1C (GeneID 1028) | 0.419 | 0.987 | -0.0869 | -0.174 | -0.0461
PIP5KL1 (GeneID 138429) | 0.58 | 1 | -0.143 | -0.211 | -0.018
MAP2K7 (GeneID 5609) | -1.04 | 0.874 | -0.0969 | -0.0623 | 0.0472
TSSK2 (GeneID 23617) | 0.58 | 1 | -0.208 | -0.0433 | -0.0125
CHKB (GeneID 1120) | 0.58 | 1 | -0.143 | -0.211 | 0.00768
PRKACA (GeneID 5566) | 0.58 | 1 | -0.135 | -0.0703 | 0.0167
HUNK (GeneID 30811) | 0.104 | 0.963 | 0.0647 | 0.0138 | 0.131
EPHB4 (GeneID 2050) | 0.58 | 1 | -0.199 | -0.137 | -0.00346
ULK1 (GeneID 8408) | 0.58 | 1 | -0.103 | -0.211 | 0.0183
TJP2 (GeneID 9414) | 0.58 | 1 | -0.137 | -0.211 | 0.0538
ERBB4 (GeneID 2066) | 0.58 | 1 | -0.236 | -0.175 | -0.0577
LMBR1 (GeneID 64327) | 0.58 | 1 | -0.203 | 0.0642 | -0.139
PIK3R2 (GeneID 5296) | 0.58 | 1 | -0.16 | -0.211 | -0.08
CDKL3 (GeneID 51265) | 0.58 | 1 | -0.23 | -0.108 | -0.0295
LMTK2 (GeneID 22853) | 0.58 | 1 | -0.0817 | -0.0106 | 0.00246
N4BP2 (GeneID 55728) | 0.0832 | 0.961 | -0.205 | 0.0481 | -0.0306
